Data reported in the supplement of paper PMC10849652.
The other results are listed elsewhere or left out.

By UniProt entry, the sequences of proteins in these tests, tags left out. Where a name states a change or a piece, a line headed by the entry shows the natural chain unless it says otherwise.
UniProt Q9UNI6, whole entry, looked up: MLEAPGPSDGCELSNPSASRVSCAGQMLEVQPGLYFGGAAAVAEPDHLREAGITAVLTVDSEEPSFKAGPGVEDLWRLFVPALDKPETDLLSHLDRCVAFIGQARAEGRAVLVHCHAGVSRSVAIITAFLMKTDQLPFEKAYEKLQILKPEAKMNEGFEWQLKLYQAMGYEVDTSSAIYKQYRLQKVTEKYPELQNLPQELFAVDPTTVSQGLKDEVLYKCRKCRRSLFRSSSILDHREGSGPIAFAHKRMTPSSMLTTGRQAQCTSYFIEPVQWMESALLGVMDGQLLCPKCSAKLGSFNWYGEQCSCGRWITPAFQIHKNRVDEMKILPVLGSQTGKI
UniProt Q8NF50: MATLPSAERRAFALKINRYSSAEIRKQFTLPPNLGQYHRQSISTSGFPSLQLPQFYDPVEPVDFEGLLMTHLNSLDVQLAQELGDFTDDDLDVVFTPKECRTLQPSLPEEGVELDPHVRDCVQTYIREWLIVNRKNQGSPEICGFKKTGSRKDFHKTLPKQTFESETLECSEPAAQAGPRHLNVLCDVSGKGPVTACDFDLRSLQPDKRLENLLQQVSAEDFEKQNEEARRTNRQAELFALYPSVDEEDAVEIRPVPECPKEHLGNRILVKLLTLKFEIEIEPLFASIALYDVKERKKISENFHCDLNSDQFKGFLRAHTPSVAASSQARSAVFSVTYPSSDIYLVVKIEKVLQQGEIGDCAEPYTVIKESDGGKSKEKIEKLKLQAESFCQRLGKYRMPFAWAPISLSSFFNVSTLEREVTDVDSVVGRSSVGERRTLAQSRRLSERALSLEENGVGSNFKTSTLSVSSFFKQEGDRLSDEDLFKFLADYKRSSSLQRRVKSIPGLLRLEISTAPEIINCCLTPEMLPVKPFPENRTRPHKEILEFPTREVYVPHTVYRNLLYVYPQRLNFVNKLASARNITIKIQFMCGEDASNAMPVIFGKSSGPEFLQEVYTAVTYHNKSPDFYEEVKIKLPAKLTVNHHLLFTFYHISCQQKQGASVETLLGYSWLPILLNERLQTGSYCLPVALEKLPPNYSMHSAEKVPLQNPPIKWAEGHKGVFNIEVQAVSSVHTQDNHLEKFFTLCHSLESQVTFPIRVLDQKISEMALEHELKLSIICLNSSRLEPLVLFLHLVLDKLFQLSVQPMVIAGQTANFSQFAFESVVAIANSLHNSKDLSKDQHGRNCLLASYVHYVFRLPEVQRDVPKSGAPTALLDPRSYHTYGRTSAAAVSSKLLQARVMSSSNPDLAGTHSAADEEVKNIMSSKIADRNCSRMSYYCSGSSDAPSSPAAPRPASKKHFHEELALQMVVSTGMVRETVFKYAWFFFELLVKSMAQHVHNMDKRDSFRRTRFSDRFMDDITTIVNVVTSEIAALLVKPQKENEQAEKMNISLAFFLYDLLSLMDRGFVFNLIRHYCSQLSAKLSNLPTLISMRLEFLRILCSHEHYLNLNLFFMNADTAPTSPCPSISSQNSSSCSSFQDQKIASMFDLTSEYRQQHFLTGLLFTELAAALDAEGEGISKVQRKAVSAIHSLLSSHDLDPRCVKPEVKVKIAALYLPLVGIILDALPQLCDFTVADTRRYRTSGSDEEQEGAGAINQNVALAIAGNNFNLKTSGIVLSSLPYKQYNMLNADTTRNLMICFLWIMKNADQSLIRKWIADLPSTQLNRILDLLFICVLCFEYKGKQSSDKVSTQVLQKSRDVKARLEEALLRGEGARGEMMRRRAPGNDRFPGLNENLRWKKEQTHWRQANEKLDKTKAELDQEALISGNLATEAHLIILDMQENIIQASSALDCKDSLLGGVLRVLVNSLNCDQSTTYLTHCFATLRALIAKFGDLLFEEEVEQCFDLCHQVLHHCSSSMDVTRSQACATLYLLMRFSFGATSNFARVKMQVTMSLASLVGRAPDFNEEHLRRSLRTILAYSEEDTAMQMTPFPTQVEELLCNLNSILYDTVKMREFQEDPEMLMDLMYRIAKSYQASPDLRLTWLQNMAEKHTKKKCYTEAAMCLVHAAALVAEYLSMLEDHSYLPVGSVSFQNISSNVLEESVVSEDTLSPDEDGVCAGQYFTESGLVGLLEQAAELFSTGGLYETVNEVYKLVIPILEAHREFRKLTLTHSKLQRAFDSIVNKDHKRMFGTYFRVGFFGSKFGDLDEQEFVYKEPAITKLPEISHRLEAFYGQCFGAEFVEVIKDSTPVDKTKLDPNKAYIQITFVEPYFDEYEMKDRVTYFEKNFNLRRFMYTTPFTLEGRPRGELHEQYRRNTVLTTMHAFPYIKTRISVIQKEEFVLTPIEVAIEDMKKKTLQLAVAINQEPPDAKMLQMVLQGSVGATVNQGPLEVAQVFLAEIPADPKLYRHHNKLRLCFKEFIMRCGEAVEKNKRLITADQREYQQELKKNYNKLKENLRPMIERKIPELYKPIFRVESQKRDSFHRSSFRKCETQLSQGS
UniProt O00716: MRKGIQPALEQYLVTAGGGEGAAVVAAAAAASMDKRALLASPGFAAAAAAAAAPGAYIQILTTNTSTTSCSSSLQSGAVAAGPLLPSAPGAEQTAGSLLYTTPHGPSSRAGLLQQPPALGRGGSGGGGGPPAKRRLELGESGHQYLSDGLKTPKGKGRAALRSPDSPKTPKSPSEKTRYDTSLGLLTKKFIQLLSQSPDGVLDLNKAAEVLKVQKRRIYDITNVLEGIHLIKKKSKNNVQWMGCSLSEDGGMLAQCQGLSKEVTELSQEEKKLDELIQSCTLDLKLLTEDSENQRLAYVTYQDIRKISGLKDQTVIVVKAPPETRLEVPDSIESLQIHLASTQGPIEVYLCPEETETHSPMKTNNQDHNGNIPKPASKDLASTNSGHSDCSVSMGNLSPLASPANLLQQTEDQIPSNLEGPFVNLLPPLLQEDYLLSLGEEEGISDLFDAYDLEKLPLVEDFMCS
UniProt Q9BQC3: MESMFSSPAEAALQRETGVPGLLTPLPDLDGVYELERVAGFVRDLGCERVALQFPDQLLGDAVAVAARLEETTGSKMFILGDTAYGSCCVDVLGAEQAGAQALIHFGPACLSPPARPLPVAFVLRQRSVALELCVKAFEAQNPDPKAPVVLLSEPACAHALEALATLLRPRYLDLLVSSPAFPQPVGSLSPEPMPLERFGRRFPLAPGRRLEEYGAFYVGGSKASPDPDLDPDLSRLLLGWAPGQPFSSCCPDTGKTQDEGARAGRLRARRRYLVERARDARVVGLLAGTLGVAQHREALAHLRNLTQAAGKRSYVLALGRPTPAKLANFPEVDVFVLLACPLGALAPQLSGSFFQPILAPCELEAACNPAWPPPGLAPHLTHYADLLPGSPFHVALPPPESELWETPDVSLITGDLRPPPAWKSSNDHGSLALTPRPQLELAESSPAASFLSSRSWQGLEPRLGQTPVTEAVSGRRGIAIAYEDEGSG
UniProt Q5JWR5: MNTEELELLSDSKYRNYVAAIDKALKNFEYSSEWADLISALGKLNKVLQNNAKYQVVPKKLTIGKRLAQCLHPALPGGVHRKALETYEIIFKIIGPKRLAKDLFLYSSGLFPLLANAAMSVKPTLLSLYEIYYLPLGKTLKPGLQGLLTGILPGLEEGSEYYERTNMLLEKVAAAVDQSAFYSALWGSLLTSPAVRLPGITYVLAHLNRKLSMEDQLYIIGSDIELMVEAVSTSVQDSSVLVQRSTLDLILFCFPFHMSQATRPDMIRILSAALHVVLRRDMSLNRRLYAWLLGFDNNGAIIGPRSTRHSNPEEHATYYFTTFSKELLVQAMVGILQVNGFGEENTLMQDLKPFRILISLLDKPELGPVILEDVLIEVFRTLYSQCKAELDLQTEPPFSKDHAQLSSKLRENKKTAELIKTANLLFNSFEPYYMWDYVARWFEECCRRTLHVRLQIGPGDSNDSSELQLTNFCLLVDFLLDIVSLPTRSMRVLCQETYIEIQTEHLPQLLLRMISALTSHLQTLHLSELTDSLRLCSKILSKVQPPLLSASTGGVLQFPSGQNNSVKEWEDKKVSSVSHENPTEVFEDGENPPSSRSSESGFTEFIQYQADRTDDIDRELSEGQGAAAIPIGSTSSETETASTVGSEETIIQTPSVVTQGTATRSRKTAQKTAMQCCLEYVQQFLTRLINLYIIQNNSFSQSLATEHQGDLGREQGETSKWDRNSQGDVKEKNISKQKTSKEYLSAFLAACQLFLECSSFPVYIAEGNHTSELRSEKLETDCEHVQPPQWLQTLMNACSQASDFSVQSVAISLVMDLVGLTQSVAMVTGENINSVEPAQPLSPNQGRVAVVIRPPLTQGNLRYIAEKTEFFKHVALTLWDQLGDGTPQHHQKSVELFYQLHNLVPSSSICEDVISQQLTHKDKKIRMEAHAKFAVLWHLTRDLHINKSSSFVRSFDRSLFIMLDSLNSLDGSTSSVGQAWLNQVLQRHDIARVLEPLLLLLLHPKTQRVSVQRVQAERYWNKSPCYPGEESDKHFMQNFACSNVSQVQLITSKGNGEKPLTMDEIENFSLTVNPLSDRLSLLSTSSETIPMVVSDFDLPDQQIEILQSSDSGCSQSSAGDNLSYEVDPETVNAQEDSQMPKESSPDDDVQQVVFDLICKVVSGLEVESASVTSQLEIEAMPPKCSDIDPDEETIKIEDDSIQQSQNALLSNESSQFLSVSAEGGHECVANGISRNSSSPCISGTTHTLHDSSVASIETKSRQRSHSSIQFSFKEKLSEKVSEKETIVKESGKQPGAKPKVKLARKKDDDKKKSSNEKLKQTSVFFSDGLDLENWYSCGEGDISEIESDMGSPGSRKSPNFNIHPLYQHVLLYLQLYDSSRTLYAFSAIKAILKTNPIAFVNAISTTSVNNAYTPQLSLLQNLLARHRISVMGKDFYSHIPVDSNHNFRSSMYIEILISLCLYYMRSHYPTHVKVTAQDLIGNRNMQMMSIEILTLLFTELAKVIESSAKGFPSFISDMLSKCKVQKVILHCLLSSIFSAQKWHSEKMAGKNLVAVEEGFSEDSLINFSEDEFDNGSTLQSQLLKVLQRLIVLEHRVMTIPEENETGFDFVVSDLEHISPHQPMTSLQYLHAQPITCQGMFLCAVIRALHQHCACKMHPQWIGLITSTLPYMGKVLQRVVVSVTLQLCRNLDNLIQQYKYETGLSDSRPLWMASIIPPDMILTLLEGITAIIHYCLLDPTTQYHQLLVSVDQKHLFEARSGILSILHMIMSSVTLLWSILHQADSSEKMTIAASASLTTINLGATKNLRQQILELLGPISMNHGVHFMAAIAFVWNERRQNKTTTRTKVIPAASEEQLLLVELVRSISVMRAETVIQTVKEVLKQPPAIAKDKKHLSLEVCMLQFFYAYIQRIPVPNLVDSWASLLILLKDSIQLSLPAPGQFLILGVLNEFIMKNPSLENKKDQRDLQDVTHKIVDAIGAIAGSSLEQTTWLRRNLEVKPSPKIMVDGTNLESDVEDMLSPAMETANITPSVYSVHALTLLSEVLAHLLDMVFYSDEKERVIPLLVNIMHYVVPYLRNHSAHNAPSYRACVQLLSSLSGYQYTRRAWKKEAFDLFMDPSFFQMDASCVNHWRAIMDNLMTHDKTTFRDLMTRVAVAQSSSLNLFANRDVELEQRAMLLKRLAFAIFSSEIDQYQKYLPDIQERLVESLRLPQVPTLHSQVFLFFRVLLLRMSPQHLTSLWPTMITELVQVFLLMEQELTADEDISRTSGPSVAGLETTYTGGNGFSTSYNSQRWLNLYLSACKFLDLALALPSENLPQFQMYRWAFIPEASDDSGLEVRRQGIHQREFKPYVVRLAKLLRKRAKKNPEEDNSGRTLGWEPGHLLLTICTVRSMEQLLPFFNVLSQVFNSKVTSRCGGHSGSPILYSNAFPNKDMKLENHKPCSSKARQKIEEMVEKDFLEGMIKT
UniProt Q96FN9: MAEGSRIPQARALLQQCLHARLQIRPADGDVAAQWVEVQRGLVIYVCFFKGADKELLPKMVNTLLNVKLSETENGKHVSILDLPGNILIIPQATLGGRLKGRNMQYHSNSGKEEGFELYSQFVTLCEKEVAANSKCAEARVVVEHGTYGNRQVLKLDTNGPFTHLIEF
UniProt P63172, whole entry, looked up: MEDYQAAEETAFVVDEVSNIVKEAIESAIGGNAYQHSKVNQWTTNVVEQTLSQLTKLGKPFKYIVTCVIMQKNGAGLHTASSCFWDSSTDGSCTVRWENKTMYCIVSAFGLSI
UniProt Q96FX2: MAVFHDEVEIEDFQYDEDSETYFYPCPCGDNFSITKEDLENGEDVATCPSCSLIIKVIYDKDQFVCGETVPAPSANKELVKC
UniProt Q86YN1: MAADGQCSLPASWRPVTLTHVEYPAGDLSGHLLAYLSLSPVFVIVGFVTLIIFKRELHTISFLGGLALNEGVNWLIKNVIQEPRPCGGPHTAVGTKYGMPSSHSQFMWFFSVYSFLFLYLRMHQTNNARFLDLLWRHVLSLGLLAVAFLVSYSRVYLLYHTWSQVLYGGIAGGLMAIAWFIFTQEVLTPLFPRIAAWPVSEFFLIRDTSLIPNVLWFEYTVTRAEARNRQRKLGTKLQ

Tests used:
Test in all cases: log2 fold change, soluble protein after heating vs DMSO (PISA); higher = thermal stabilisation; K562 cells, 10 uM, 30 min; active = over 0.2 and 3.5 SD of the protein, either way, in both replicates (recomputed)
erlotinib = compound: C#Cc1cccc(Nc2ncnc3cc(OCCOC)c(OCCOC)cc23)c1 [erlotinib]
How it was run: (§1)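 K562 cells at 2×10^6 cells/mL were treated with 10 μM compound for 30 min. Aliquots were heated for 3 min across 48°C-58°C, pooled, and extracted in PBS with 0.5% NP-40 at 4°C; soluble protein was the supernatant after 21,000xg for 90 min. Soluble protein was quantified by TMTpro 16plex LC-MS/MS with channel sums equalised, and reported as log2 fold change in thermal stability against DMSO controls, with values from duplicates.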

[1] = compound: C/C(=N\NC(=O)C1=CC(=CC=C1)S(=O)(=O)N2CCOCC2)/C3=C(C=CC(=C3)Cl)O
How it was run: as §1

[2] = compound: C1=CC(=C(C=C1Cl)C2=NC3=NC=CN=C3C(=N2)NC4=CC=NC=C4)F
How it was run: as §1

[3] = compound: C1=CC(=CC=C1C2=NC3=C(N2)C=C(C=C3)C(=O)N)OC4=CC=C(C=C4)Cl
How it was run: as §1

[4] = compound: C1=CC2=C(C=CC(=C2)/C=C\3/C(=O)NC(=NCC4=CC=CS4)S3)N=C1
How it was run: as §1

[5] = compound: C1=CC2=NC=CN=C2C=C1/C=C/3\C(=O)NC(=O)S3
How it was run: as §1

[6] = compound: C1=CC=C(C=C1)C2=NC(=C(N2)C3=CC=NC=C3)C4=CC(=C(C=C4)Cl)O
How it was run: as §1

[7] = compound: C1=CC=C2C(=C1)C3=NNC4=CC=CC(=C43)C2=O
How it was run: as §1

[8] = compound: C1CCN(C1)C(=O)NC2=CC=CC(=C2)NC3=NC=C(C(=N3)NCCC4=CN=CN4)Br
How it was run: as §1

[9] = compound: C1CN(CCC1(CC2=CC=C(C=C2)Cl)N)C3=NC=NC4=C3C=CN4
How it was run: as §1

Measured: log2 fold change

DUSP12 (UniProt Q9UNI6)
inactive: erlotinib 0.057 | [1] 0.044 | [2] -0.058 | [3] -0.04 | [4] 0.019 | [5] 0.056 | [6] 0.014 | [7] 0.018 | [8] 0.088 | [9] -0.046

EDARADD (UniProt Q8WWZ3)
inactive: erlotinib 0.035 | [1] -0.028 | [2] 0.033 | [3] 0.06 | [4] 0.036 | [5] 0.048 | [6] -0.051 | [7] -0.029 | [8] 0.014 | [9] 0.025

DOCK8 (UniProt Q8NF50)
inactive: erlotinib 0.259 | [1] 0.001 | [2] 0.182 | [3] 0.04 | [4] -0.092 | [5] -0.021 | [6] -0.046 | [7] 0.059 | [8] -0.076 | [9] -0.071

E2F3 (UniProt O00716)
inactive: erlotinib 0.017 | [2] -0.09 | [3] 0 | [5] -0.002 | [6] 0.037 | [8] -0.002 | [9] 0.036

DPH2 (UniProt Q9BQC3)
inactive: erlotinib -0.046 | [1] 0.018 | [2] 0.159 | [3] 0.002 | [4] 0.047 | [5] 0.005 | [6] -0.112 | [7] -0.038 | [8] -0.041 | [9] -0.006

DOP1A (UniProt Q5JWR5)
inactive: erlotinib 0.177 | [2] 0.009 | [3] -0.152 | [5] 0.035

DTD2 (UniProt Q96FN9)
inactive: erlotinib 0.068 | [1] 0.11 | [2] -0.075 | [3] -0.161 | [4] 0.066 | [7] -0.084 | [8] -0.03 | [9] 0.204

DYNLT1 (UniProt P63172)
inactive: erlotinib -0.149 | [1] -0.028 | [3] 0.128 | [4] 0.036 | [5] -0.035 | [6] -0.01 | [7] -0.069 | [8] -0.043 | [9] 0.091

DPY19L1, A0A1B0GW05
inactive: erlotinib -0.07 | [1] 0.036 | [2] -0.043 | [3] 0.039 | [4] -0.018 | [5] 0.037 | [6] 0.008 | [7] 0.026 | [8] -0.033 | [9] 0.109

DPH3 (UniProt Q96FX2)
inactive: erlotinib -0.061 | [1] 0.076 | [2] -0.03 | [3] -0.012 | [4] 0.086 | [5] -0.051 | [7] -0.022 | [8] -0.244 | [9] -0.096

DOLPP1 (UniProt Q86YN1)
inactive: erlotinib 0.049 | [1] 0.039 | [3] 0.009 | [4] -0.165 | [5] 0.074 | [6] 0.17 | [7] 0.011 | [8] -0.088 | [9] 0.001
